Results are given in words; binding and its absence hold for the method and conditions named. In cells and extracts the contact can be indirect. Binding can be weak; no strength is given.
Legend:
[1] = target: recombinant protein corresponding to udTRF2 (the long linker region of TRF2) (UniProt Q15554); assay: co-IP; anti-udTRF2 antibodies on protein A Sepharose incubated with an excess of recombinant udTRF2 for 3 h, then mouse liver nuclear extract added; Western blot with anti-lamin A and anti-lamin C; only the target purified
[2] = target: recombinant protein corresponding to udTRF2 (the long linker region of TRF2) (UniProt Q15554); assay: co-IP; nuclear lamina extract of mouse liver nuclei incubated with 5 uL recombinant udTRF2 (0.25 mg/mL) for 7 h, then added to protein A Sepharose with anti-udTRF2 antibodies; IP buffer 20 mM Tris pH 7.5, 150 mM NaCl, 1 mM EDTA, 1 mM PMSF; 4 °C; Western blot with anti-lamin C and anti-lamin B1; only the target purified

Protein sequences, listed by entry. Tags and fused reporters are not part of them. Lines headed by an entry give the natural chain unless they say otherwise; changes in a name come on top. Chains listed by the source or under a name are the forms on record and can include a tag or linker.
UniProt Q15554: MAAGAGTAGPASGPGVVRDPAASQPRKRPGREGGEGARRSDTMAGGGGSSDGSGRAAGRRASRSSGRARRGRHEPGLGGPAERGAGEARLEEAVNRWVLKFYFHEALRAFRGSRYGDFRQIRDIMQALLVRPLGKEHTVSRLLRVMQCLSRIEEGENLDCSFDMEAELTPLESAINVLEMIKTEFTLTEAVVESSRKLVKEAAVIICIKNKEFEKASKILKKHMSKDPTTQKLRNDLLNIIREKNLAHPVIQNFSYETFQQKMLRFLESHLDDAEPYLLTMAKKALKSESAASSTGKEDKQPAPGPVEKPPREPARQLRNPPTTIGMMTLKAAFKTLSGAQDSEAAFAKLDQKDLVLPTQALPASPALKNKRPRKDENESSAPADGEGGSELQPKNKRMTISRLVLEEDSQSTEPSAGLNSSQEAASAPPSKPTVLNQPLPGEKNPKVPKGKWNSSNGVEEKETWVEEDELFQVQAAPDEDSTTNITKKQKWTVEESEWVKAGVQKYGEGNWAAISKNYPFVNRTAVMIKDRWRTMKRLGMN
lamin C (P48678-2, form named): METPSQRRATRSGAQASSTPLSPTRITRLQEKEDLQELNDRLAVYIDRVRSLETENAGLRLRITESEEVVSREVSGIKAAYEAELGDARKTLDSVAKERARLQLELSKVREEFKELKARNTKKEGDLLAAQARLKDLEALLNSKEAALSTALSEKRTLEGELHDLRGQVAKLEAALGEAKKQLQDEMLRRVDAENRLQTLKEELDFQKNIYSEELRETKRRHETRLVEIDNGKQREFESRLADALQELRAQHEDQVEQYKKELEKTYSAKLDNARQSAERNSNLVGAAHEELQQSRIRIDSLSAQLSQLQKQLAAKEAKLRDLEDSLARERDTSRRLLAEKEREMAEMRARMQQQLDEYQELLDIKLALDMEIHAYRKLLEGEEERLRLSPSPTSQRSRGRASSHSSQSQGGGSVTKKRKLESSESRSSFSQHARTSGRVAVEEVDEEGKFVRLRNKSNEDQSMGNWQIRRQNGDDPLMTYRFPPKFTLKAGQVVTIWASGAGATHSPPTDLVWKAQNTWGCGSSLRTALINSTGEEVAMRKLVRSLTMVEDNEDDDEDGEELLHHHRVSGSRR

binding [1]: binds
binding [2]: binds
Substance: lamin C (from UniProt P48678-2 1-574)

— paper PMC8036907
